The whole screen tested about 330,000 compounds, of which about 7,700 (2.3%) were called active. Inconclusive results, whose numbers are uncertain, are shown with a selection of clear calls. Calls follow the shape of the dose curve; as a rule, active = well fitted inhibition curve with a large enough effect; inconclusive = small, poorly fitted or top-dose-only effect, or effect the other way; inactive = flat fitted curve, though single readings scatter. Potencies of inconclusive entries are doubtful fits and often do not repeat.
Assay: qHTS screen for small molecules that inhibit ELG1-dependent DNA repair in human embryonic kidney (HEK293T) cells expressing luciferase-tagged ELG1; also: nearly all actives have a fitted effect of over 55% in size
Details: HEK293T ELG1-luciferase reporter, luminescence, 16 h, DNA damage induced by 5-fluorouridine; activity change, negative = inhibition: at 46.1 µM (top of the series)
Summary of the method: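 Quantitative HTS, concentration-response format. 2,000 cells/well co-treated with 5-fluorouridine and compound, 16 hr in 5% CO2 at 37 °C; ONE-Glo luminescence read after 30 min.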
% is scaled to controls: 0 for no effect and ±100 for the full control effect; potency is read from the fitted curve at half-maximal effect.

SMILES	activity change, negative = inhibition	Potency
O=C(CSc1ccc2ccccc2n1)Nc1ccc(N2CCOCC2)cc1	inactive: -17.9%	
C[C@H](CO)N1C[C@H](C)[C@@H](CN(C)Cc2ccc(C(=O)O)cc2)Oc2c(NS(=O)(=O)c3cccs3)cccc2C1=O	inactive: 14.6%	
COc1cccc(C(=O)NCC(c2cccnc2)N2CCN(c3ccccc3OC)CC2)c1 (stereo not given)		inconclusive: 3.26 µM [inhibitor, single point]
O=c1[nH]nc(CNc2ccc(Cl)cc2Cl)c2ccccc12	inactive: -3.12%	
O=C(/C=C/c1ccc(OCc2c(F)cccc2Cl)cc1)N1CCOCC1		inconclusive: 29.1 µM [inhibitor, single point]
COc1ccccc1NS(=O)(=O)c1ccc(N2CCOCC2)c(NC(=O)c2ccco2)c1		inconclusive: 25.9 µM [inhibitor, partial curve, poor fit]
CCOC(=O)n1c(=O)oc2cc(S(=O)(=O)N3CCCCC3)ccc21	inactive: 6.52%	
CCOc1cccc(C(=O)Nc2ccc3[nH]ncc3c2)c1		inconclusive: 5.8 µM [activator, partial curve]
CCOCC(=O)Nc1c(C(=O)Nc2ccc3c(c2)OCO3)oc2ccccc12		inconclusive: 2.31 µM [activator, partial curve]
COc1ccc(-c2nnn(CC(=O)NCc3cccs3)n2)cc1OC		inconclusive: 32.6 µM [inhibitor, single point]
Cc1noc(C)c1S(=O)(=O)N1CCN(C(c2ccccc2)c2ccc(Cl)cc2)CC1 (stereo not given)		inconclusive: 14.6 µM [inhibitor, partial curve, poor fit]
Nc1nc(OCC(F)(F)F)cc(Oc2ccccc2F)n1		inconclusive: 23.1 µM [activator, single point]
COc1cc2nc(CC(C)C)n(NC(=O)c3ccccc3Br)c(=O)c2cc1OC	inactive: -25%	
Cc1ccccc1CSCC(=O)NC1CCCC1		inconclusive: 23.1 µM [activator, single point]
O=C(CSc1nnc(-c2ccco2)o1)Nc1ccccc1Cl		inconclusive: 14.6 µM [activator, single point]
Fc1ccc(N/N=C2/CCSc3sccc32)c(F)c1		inconclusive: 13 µM [activator, partial curve, poor fit]
CCOc1ccc(N(C(=O)c2snc(C(N)=O)c2N)C(C(=O)NC2CCCC2)c2ccncc2)cc1 (stereo not given)	inactive: 0.405%	
Cc1cccc(-c2nc(CS(=O)CC(=O)NC(C)CCc3ccccc3)c(C)o2)c1 (stereo not given)		inconclusive: 29.1 µM [inhibitor, single point]
CC1=NNC(=O)C1CC(=O)N/N=C/C(Br)=C/c1ccccc1 (stereo not given)	inactive: 5.76%	
CC(=O)Oc1ccc(-c2csc(Nc3ccc(Cl)cn3)n2)cc1		inconclusive: 7.3 µM [activator, partial curve]
Cc1cccc(NC(=O)Nc2ccc(Br)cc2)n1		inconclusive: 4.11 µM [activator, full curve]
COc1ccc(CN2CC(=O)N(c3ccc(Cl)cc3)C2=S)cc1OC		inconclusive: 29.1 µM [inhibitor, single point]
O=C1Nc2ccccc2Nc2ncccc21		inconclusive: 2.06 µM [inhibitor, partial curve, poor fit]
Cc1nc([N+](=O)[O-])c(SCC(O)CCl)n1Cc1ccc(Cl)cc1 (stereo not given)		inconclusive: 32.6 µM [inhibitor, partial curve, poor fit]

SMILES	activity change, negative = inhibition	Potency
Cc1nc(COc2cccc(Cl)c2)sc1C(=O)/C=C/N(C)C		inconclusive: 14.6 µM [activator, partial curve, poor fit]
Cc1ccc2oc(C(=O)Nc3ccc(S(=O)(=O)Nc4onc(C)c4C)cc3)c(C)c2c1		inconclusive: 29.1 µM [activator, partial curve, poor fit]
Cc1cc(C)c2nncn2n1		inconclusive: 14.6 µM [activator, partial curve, poor fit]
CN1c2ccccc2C(O)=C(C(=S)Nc2ccc(Cl)cc2)S1(=O)=O	inactive: -7.47%	
CCOc1ccc(CCNC(=O)c2cccc3c2C(=O)N(CCOC)C3)cc1OCC		inconclusive: 23.1 µM [inhibitor, single point]
CSc1ccc(NC(=O)N2CCC(C(=O)c3ccc(F)cc3)CC2)cc1		inconclusive: 32.6 µM [inhibitor, partial curve, poor fit]
CC(C)(C)OC(=O)C[C@@H]1C/C=C\C[C@@H](CC(=O)NCCO)C(=O)N[C@H](Cc2ccccc2)COC1=O	inactive: 1.01%	
CCOC(=O)N1CCC(NC(=O)c2ccc3snnc3c2)CC1	inactive: 21.1%	
CC(=O)Nc1ccc(S(=O)(=O)Nc2cccn(Cc3ccc(C)cc3)c2=O)cc1		inconclusive: 16.4 µM [inhibitor, partial curve]
CC(C)(C)C(=O)NC(=S)Nc1sc2c(c1C#N)CCCCC2		inconclusive: 11.6 µM [activator, partial curve]
NC(=O)CCCn1c(C(=O)c2cc(Cl)c(N)c(Cl)c2)c2ccc([N+](=O)[O-])cc2[n+]1[O-]		inconclusive: 12.6 µM [inhibitor, single point]
CCCC(=O)N1CCCC(c2nc(-c3cccs3)no2)C1 (stereo not given)		inconclusive: 9.2 µM [activator, single point]
CCn1c(N2CCN(S(=O)(=O)c3ccc(Cl)cc3)CC2)nc2ccccc21		active: 14.6 µM
O=C1/C(=C/c2cccc3ccccc23)CCCc2ccccc21		inconclusive: 20.6 µM [activator, partial curve]
COc1ccc(-c2nn(-c3ccccc3)cc2C(=O)Nc2cccc(S(=O)(=O)NC3=NCCC3)c2)cc1		active: 23.1 µM
O=C(CN1CCN(c2ccccc2)CC1)Nc1nnc(-c2ccccc2)s1	inactive: 12.4%	
C/C(CC(=O)Nc1ccc2c(c1)OCO2)=N\NC(=O)OC(C)(C)C		inconclusive: 29.1 µM [activator, single point]
Cc1nc2sc(-c3ccccc3)cc2c(=O)n1-n1cccc1		inconclusive: 7.31 µM [activator, partial curve]
CC(C)(C)NC(=O)Cn1nnc(-c2ccc(OCc3c(F)cccc3Cl)cc2)n1		inconclusive: 29.1 µM [inhibitor, single point]
Cc1ccc(Nc2nc3ccc(Cl)cc3n3cnnc23)cc1F	inactive: -1.66%	
CCOc1ccc(CCNC(=O)c2[nH]c(C)c(C(C)=O)c2CC)cc1OCC		inconclusive: 29.1 µM [inhibitor, single point]
CCOC(=O)[C@H]1[C@H]2COc3ccc(Br)cc3[C@@H]2N2C(=O)c3cc(F)c(F)cc3NC(=O)[C@@]12C	inactive: -18.7%	
CN(C(=O)COc1ccc(-c2nnco2)cc1)C1CCS(=O)(=O)C1 (stereo not given)	inactive: 23.1%	
COc1ccc(-c2nsc3c(N4CCCC4)ncnc23)cc1		inconclusive: 0.13 µM [activator, full curve]

Some of the entries so far, as a markdown table:

| SMILES | activity change, negative = inhibition | Potency |
| --- | --- | --- |
| CCOc1ccc(CCNC(=O)c2cccc3c2C(=O)N(CCOC)C3)cc1OCC |  | inconclusive: 23.1 µM [inhibitor, single point] |
| CSc1ccc(NC(=O)N2CCC(C(=O)c3ccc(F)cc3)CC2)cc1 |  | inconclusive: 32.6 µM [inhibitor, partial curve, poor fit] |
| CCOc1ccc(CCNC(=O)c2[nH]c(C)c(C(C)=O)c2CC)cc1OCC |  | inconclusive: 29.1 µM [inhibitor, single point] |
| CN(C(=O)COc1ccc(-c2nnco2)cc1)C1CCS(=O)(=O)C1 (stereo not given) | inactive: 23.1% |  |

Next records follow.

SMILES	activity change, negative = inhibition	Potency
CCOc1ncccc1C(=O)NNC(=O)CSc1ccc(Cl)cc1		inconclusive: 9.2 µM [inhibitor, single point]
C=CCOc1cccc(CNc2cccc(C(=O)O)c2)c1		inconclusive: 2.31 µM [activator, full curve]
COc1ccc(-c2cc(C(=O)Nc3sc4c(c3C#N)CCCC4)c3ccccc3n2)cc1		inconclusive: 25.9 µM [inhibitor, partial curve]
CCn1c(NC(=O)c2cccs2)c(-c2cccs2)c(=O)c2ccccc21		inconclusive: 16.4 µM [inhibitor, single point]
COc1ccc([C@H]2CC(=O)C=C(c3cc4ccccc4s3)C2)cc1OC		inconclusive: 29.1 µM [inhibitor, single point]
COc1ccc2oc(=O)c(C(=O)NC(C)c3ccccc3)cc2c1 (stereo not given)		inconclusive: 0.0012 µM [inhibitor]
CCOc1ccc(S(=O)(=O)Nc2ccc(C(=O)N3CC(C)OC(C)C3)cc2)cc1 (stereo not given)	inactive: 7.08%	
COCCOC(=O)C1=C(C)NC(=O)NC1c1c(F)cccc1Cl (stereo not given)	inactive: 0%	
CC1CCCC(C)N1c1ccc(S(=O)(=O)N2CCOCC2)cc1Cl (stereo not given)	inactive: -8.51%	
CCOP(=O)(OCC)C(O)c1cc(OC)c(OC)c(OC)c1 (stereo not given)	inactive: 13.6%	
Cc1cc(NCCCN2CCOCC2)n2ncc(-c3ccc(Cl)cc3)c2n1		inconclusive: 14.6 µM [activator, partial curve]
Cc1cc(C)n(-c2nnc(NC34CC5CC(CC(C5)C3)C4)nn2)n1		inconclusive: 8.2 µM [activator, partial curve]
N#Cc1ccsc1NC(=O)COC(=O)c1ccc(NC(N)=O)cc1		inconclusive: 14.6 µM [activator, partial curve]
CCOC(=O)c1cc(-c2ccc(OC)cc2)nc2c1c(C)nn2CCC#N		active: 3.66 µM
O=C(CCSc1ccc(Cl)cc1)NN=C1CCCCCC1	inactive: -15.5%	
COc1ccc(Nc2nc(C)nc3c2nnn3Cc2ccccc2)cc1OC		active: 9.2 µM
Clc1ccc(OCCCc2nc(-c3ccncc3)no2)c(Cl)c1	inactive: 2.97%	
COc1ccc2c(c1)OC[C@H]1[C@H]2N2C(=O)CN(C)C(=O)[C@@]2(C)[C@H]1c1ccccc1	inactive: 7.98%	
COC(=O)c1cc(C(=O)OC)cc(-n2c(C)cc(C(=O)COC(=O)CNS(=O)(=O)c3ccc(C)cc3)c2C)c1		inconclusive: 0.146 µM [inhibitor, single point]
COc1ccc(CCN2C(=NC(=O)C(C)C)SC3CS(=O)(=O)CC32)cc1 (stereo not given)		inconclusive: 18.3 µM [inhibitor, single point]
Cn1c(=O)oc2cc(S(=O)(=O)NCCC(=O)NCCc3ccc(Cl)cc3)ccc21	inactive: -11.1%	
Cc1ccc(NC(=O)NNC(=O)c2cccs2)cc1		inconclusive: 20.6 µM [activator, single point]

— PubChem BioAssay AID504467 (National Center for Advancing Translational Sciences (NCATS), 2011)
